Assay results as given in the supplement of paper PMC10849652.
The list shows a part of the results.

Amino acid sequences for entries named in this document (tags omitted). A change or cut given only in a name is not applied to a line headed by its entry.
UniProt P16083: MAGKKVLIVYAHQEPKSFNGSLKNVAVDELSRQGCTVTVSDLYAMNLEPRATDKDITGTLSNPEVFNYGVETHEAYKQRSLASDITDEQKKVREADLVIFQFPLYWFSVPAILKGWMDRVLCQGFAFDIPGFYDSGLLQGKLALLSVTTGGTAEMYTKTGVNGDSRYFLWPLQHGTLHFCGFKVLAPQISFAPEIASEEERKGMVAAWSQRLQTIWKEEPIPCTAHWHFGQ
UniProt Q96TA1: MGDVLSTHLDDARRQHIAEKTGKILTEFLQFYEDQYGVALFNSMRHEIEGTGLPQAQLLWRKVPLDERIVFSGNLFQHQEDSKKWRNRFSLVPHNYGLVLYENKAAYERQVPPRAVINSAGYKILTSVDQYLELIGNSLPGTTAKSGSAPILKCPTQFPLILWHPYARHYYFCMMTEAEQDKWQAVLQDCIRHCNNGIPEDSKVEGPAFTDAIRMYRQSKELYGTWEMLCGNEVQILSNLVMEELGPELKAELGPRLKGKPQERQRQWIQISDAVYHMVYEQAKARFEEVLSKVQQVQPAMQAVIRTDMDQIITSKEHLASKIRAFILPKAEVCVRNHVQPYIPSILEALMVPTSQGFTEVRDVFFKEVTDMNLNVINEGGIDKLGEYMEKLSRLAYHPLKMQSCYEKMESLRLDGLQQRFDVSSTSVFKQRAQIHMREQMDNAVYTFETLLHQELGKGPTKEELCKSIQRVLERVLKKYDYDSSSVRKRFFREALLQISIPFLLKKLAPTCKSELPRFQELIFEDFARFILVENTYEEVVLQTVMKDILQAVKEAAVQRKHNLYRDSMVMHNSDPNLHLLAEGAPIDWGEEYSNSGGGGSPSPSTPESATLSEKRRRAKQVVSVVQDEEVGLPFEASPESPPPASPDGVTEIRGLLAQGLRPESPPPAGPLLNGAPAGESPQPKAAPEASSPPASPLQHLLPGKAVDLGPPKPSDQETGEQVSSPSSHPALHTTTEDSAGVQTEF
UniProt Q9GZT8: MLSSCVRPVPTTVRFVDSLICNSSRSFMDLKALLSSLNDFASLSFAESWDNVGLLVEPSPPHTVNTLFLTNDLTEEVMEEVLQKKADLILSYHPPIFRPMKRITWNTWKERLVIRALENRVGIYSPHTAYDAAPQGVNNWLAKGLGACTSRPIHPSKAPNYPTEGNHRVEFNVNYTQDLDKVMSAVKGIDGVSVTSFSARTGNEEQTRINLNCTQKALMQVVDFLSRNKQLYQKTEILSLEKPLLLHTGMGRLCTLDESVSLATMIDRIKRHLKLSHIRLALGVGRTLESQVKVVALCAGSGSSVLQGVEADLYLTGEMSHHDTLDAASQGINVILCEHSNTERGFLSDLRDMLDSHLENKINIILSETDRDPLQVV
UniProt Q8N8Q9: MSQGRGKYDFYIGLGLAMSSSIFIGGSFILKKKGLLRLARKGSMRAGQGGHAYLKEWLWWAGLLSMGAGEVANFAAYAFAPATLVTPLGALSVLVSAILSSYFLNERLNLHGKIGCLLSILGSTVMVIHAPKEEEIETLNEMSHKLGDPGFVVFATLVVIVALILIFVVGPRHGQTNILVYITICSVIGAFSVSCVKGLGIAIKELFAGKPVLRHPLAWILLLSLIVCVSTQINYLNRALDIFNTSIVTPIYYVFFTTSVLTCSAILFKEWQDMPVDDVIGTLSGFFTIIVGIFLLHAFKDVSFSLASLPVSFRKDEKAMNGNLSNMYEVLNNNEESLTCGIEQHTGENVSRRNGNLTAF
UniProt P18615, whole entry, looked up: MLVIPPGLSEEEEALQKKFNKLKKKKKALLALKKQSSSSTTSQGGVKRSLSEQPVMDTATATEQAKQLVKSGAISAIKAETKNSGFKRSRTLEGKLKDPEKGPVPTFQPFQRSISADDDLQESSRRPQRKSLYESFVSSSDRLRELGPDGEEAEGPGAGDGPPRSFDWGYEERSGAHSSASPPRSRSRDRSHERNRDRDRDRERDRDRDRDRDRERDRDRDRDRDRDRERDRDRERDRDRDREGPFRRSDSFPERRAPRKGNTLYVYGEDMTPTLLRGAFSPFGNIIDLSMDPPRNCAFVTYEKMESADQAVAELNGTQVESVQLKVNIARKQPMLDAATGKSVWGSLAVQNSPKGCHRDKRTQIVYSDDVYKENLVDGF
UniProt Q9UHY1: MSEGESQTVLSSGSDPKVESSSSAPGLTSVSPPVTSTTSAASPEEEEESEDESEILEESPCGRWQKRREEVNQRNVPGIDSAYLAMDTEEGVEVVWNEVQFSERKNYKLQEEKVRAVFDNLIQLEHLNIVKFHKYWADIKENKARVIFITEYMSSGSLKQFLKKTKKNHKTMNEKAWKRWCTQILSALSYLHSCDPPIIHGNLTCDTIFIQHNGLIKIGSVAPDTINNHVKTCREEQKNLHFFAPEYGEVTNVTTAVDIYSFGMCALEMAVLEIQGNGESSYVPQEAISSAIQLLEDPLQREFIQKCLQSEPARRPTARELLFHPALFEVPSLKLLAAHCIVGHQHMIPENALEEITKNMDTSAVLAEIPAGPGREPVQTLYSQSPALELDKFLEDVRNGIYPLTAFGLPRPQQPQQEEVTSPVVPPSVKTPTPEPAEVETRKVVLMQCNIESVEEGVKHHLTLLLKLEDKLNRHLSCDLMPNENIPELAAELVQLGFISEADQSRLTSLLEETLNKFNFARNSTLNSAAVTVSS
UniProt Q9Y697: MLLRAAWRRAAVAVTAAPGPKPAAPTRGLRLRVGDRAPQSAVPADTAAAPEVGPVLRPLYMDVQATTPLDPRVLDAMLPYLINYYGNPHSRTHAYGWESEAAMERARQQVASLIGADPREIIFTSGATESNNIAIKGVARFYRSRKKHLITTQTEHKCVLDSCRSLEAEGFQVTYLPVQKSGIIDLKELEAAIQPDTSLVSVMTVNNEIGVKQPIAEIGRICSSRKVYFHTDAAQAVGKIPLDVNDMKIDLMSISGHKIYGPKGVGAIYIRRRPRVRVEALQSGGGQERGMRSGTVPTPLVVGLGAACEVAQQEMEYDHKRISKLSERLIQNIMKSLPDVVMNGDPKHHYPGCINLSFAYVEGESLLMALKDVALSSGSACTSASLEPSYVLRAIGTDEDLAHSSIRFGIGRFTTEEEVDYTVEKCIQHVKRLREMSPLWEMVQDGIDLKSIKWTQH
UniProt Q9BXD5: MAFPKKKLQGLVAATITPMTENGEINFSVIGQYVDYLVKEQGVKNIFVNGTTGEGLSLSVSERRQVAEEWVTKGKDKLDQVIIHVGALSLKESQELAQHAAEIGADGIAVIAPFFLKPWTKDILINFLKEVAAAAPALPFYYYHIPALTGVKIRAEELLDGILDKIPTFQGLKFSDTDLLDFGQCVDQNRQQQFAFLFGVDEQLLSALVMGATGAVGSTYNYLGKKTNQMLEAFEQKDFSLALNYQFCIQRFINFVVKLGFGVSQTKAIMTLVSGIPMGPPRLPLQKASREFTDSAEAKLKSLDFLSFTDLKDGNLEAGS
UniProt Q9BPW8: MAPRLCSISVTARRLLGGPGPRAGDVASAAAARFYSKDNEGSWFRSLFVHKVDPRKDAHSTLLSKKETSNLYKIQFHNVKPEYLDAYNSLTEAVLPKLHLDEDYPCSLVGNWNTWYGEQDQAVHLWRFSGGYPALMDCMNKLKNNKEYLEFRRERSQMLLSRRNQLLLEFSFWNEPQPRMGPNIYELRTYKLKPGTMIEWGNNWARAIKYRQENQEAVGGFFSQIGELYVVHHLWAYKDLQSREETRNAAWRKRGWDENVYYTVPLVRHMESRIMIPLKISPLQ
UniProt O00221: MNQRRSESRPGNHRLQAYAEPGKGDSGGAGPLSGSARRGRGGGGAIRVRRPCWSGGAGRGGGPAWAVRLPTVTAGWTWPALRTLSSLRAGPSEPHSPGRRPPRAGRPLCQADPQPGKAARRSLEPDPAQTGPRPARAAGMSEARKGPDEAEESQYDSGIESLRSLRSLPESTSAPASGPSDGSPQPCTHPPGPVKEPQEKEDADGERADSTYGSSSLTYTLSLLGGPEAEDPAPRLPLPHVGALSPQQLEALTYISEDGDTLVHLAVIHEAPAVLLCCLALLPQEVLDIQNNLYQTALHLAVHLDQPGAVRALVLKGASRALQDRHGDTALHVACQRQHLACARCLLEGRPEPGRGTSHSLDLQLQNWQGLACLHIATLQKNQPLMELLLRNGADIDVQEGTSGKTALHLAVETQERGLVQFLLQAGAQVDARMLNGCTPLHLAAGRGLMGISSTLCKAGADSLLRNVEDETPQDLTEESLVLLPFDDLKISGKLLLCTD
UniProt Q15653: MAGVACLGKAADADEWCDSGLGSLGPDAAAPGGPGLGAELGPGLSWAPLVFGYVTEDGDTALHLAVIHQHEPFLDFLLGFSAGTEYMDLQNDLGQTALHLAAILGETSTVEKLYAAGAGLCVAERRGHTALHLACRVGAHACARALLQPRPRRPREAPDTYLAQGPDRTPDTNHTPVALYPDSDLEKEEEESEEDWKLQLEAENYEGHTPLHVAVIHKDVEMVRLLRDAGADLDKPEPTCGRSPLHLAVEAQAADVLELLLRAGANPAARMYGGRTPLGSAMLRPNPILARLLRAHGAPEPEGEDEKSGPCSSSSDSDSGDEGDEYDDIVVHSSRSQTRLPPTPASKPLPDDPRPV
UniProt Q9BYG3: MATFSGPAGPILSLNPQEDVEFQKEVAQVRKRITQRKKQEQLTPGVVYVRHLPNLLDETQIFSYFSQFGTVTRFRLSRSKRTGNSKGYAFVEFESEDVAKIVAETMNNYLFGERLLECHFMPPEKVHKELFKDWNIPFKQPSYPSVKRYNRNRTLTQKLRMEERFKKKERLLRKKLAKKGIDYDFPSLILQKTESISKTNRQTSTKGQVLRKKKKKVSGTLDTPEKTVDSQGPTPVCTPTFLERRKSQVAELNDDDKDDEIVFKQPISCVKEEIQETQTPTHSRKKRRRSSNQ
UniProt Q9BYT8, whole entry, looked up: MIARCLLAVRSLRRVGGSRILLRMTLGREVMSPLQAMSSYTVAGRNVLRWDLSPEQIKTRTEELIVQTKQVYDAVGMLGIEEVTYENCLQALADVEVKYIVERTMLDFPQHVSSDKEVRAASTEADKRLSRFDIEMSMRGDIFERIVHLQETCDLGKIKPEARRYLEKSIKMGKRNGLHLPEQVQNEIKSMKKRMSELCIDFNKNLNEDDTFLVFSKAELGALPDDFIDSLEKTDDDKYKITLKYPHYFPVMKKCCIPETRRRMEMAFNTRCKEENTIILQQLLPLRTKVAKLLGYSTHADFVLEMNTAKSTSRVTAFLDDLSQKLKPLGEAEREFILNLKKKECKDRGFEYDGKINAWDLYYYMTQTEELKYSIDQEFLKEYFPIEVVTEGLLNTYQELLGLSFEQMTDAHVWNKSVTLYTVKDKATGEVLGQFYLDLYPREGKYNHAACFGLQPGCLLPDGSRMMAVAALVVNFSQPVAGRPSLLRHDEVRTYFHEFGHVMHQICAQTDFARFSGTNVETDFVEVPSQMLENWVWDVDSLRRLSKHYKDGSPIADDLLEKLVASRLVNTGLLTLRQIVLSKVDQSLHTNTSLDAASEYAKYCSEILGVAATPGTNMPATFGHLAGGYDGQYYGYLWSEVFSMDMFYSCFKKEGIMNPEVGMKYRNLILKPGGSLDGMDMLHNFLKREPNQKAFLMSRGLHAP
UniProt Q9NVX2: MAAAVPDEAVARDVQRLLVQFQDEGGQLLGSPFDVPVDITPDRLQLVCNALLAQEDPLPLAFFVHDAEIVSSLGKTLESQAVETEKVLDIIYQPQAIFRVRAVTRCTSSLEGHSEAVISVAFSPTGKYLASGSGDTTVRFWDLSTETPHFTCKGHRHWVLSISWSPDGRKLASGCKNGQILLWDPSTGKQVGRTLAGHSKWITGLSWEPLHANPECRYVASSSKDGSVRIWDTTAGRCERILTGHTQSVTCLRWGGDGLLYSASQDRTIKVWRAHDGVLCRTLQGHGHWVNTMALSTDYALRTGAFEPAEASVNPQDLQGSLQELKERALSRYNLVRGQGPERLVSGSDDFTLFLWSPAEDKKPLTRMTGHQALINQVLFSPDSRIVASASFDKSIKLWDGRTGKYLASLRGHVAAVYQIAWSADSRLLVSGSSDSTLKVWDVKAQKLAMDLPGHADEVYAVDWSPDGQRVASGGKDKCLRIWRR
UniProt Q9NQR4: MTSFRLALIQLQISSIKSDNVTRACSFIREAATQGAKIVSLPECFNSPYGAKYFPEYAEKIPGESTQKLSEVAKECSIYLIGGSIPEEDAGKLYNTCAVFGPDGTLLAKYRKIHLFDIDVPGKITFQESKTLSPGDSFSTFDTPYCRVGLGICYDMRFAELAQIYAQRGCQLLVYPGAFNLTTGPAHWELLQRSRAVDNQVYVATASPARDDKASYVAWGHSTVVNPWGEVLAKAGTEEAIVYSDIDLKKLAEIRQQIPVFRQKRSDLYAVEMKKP

Columns and labels:
Assay in all cases: log2 fold change, soluble protein after heating vs DMSO (PISA); higher = thermal stabilisation; K562 cells, 10 uM, 30 min; active = over 0.2 and 3.5 SD of the protein, either way, in both replicates (recomputed)
[1] = compound: CN1CCN(CCOc2cc(OC3CCOCC3)c3c(Nc4c(Cl)ccc5c4OCO5)ncnc3c2)CC1 [saracatinib]
Outline: (§1)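 K562 cells at 2×10^6 cells/mL were given 10 μM compound for 30 min. Aliquots then went through 3 min of heating across 48°C-58°C, were pooled, and were extracted in PBS with 0.5% NP-40 at 4°C, and the supernatant after 21,000xg for 90 min was quantified by TMTpro 16plex LC-MS/MS with channel sums equalised. Thermal stability relative to control samples, from duplicates, is given as log2 fold change.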

[2] = compound: CN1CCN(c2nc(C3=C(c4c[nH]c5ccccc45)C(=O)NC3=O)c3ccccc3n2)CC1 [sotrastaurin]
Outline: as §1

[3] = compound: CN1CC[C@H](c2c(O)cc(O)c3c(=O)cc(-c4ccccc4Cl)oc23)[C@H](O)C1 [alvocidib]
Outline: as §1

[4] = compound: CN1CCc2c(c3ccccc3n2Cc2ccc(C(=O)NO)cc2)C1 [Tubastatin A]
Outline: as §1

[5] = compound: CNC(=O)C1=CC=CC=C1NC2=NC(=NC=C2Cl)NC3=C(C=C(C=C3)N4CCOCC4)OC
Outline: as §1

[6] = compound: CNC(=O)c1ccc(Nc2ncc(C(F)(F)F)c(NCc3nccnc3N(C)S(C)(=O)=O)n2)cc1 [defactinib]
Outline: as §1

[7] = compound: CNCc1ccc(-c2[nH]c3cc(F)cc4c3c2CCNC4=O)cc1 [rucaparib]
Outline: as §1

[8] = compound: CNc1nc(-c2ccc3c(N)n[nH]c3c2)cc(N2C[C@@H](C(=O)NC3CCCCC3)CC[C@H]2C)n1
Outline: as §1

[9] = compound: COC(=O)N[C@@H](C)CNc1nccc(-c2cn(C(C)C)nc2-c2cc(Cl)cc(NS(C)(=O)=O)c2F)n1 [encorafenib]
Outline: as §1

[10] = compound: COC(=O)[C@H](CCSC)NC(=O)C1=C(C=C(C=C1)NC[C@H](CS)N)C2=CC=CC=C2
Outline: as §1

[11] = compound: COC1=CC=C(C=C1)CN2C=CC3=C2C=C(C=C3)C(=O)NO
Outline: as §1

[12] = compound: CON(C)C(=O)N1N=C(c2cc(F)ccc2F)S[C@@]1(CCCN)c1ccccc1 [filanesib]
Outline: as §1

[13] = compound: CO[C@H]1C[C@@H]2CC[C@@H](C)[C@@](O)(O2)C(=O)C(=O)N2CCCC[C@H]2C(=O)O[C@H]([C@H](C)C[C@@H]2CC[C@H](n3cnnn3)[C@H](OC)C2)CC(=O)[C@H](C)/C=C(\C)[C@@H](O)[C@@H](OC)C(=O)[C@H](C)C[C@H](C)/C=C/C=C/C=C/1C [zotarolimus]
Outline: as §1

[14] = compound: COc1cc(C(=O)O)ccc1NC(=O)[C@@H]1N[C@@H](CC(C)(C)C)[C@](C#N)(c2ccc(Cl)cc2F)[C@H]1c1cccc(Cl)c1F [idasanutlin]
Outline: as §1

[15] = compound: COc1cc(Nc2ncc3c(n2)-c2ccc(Cl)cc2C(c2c(F)cccc2OC)=NC3)ccc1C(=O)O [alisertib]
Outline: as §1

[16] = compound: COc1cc2nc(-c3cc(F)ccc3O)nc(N[C@@H]3CNC[C@H]3C(C)(C)O)c2cc1OC
Outline: as §1

[17] = compound: COc1cc2ncnc(Nc3ccc(F)c(Cl)c3)c2cc1OCCCN1CCOCC1 [gefitinib]
Outline: as §1

[18] = compound: COc1cccc2cc(-c3nc([C@H]4CC[C@H](C(=O)O)CC4)n4ncnc(N)c34)[nH]c12
Outline: as §1

[19] = compound: CS(=O)(=O)CCNCc1ccc(-c2ccc3ncnc(Nc4ccc(OCc5cccc(F)c5)c(Cl)c4)c3c2)o1 [lapatinib]
Outline: as §1

[20] = compound: CS(=O)(=O)N1CCN(Cc2cc3nc(-c4cccc5[nH]ncc45)nc(N4CCOCC4)c3s2)CC1 [pictilisib]
Outline: as §1

Measured: log2 fold change

NQO2 (UniProt P16083)
inactive: [1] 0.031 | [2] 0.009 | [3] -0.015 | [4] -0.02 | [5] -0.04 | [6] -0.006 | [7] -0.005 | [8] -0.006 | [9] -0.014 | [10] 0.045 | [11] -0.063 | [12] -0.028 | [13] 0.019 | [14] -0.013 | [15] -0.055 | [16] 0.039 | [17] -0.008 | [18] 0.087 | [19] -0.026 | [20] -0.023

NIBAN2 (UniProt Q96TA1)
inactive: [1] 0.002 | [2] 0.035 | [3] -0.009 | [4] 0.013 | [5] -0.011 | [6] -0.07 | [7] -0.025 | [8] -0.049 | [9] 0.004 | [10] 0.016 | [11] -0.057 | [12] 0.011 | [13] -0.016 | [14] -0.011 | [15] -0.04 | [16] 0.072 | [17] 0.016 | [18] 0.004 | [19] -0.019 | [20] 0.05

NIF3L1 (UniProt Q9GZT8)
inactive: [1] 0.027 | [2] 0.117 | [3] 0.005 | [4] -0.025 | [5] -0.037 | [6] -0.009 | [7] 0.052 | [8] -0.049 | [9] -0.074 | [10] 0.008 | [11] -0.067 | [12] 0.041 | [13] -0.019 | [14] 0.036 | [15] -0.032 | [16] 0.032 | [17] -0.021 | [18] 0.054 | [19] -0.034 | [20] 0.031

NIPA2 (UniProt Q8N8Q9)
inactive: [1] 0.123 | [2] 0.067 | [3] -0.052 | [4] 0.007 | [5] -0.046 | [6] -0.063 | [7] -0.065 | [8] 0.053 | [9] 0.074 | [10] 0.096 | [11] -0.033 | [12] -0.024 | [13] -0.109 | [14] 0.016 | [15] 0.002 | [16] 0.015 | [17] -0.044 | [18] 0.018 | [19] 0.031 | [20] 0.011

NELFE isoform 3 (UniProt P18615)
inactive: [1] 0.008 | [2] -0.045 | [3] 0.002 | [4] 0.092 | [5] -0.005 | [6] -0.047 | [7] -0.01 | [8] -0.007 | [9] 0.031 | [10] 0.007 | [11] -0.002 | [12] -0.006 | [13] -0.048 | [14] 0.064 | [15] -0.008 | [16] -0.014 | [17] -0.006 | [18] 0.012 | [19] -0.006 | [20] 0.193

NRBP1 (UniProt Q9UHY1)
inactive: [1] 0.092 | [2] -0.038 | [3] -0.062 | [4] 0.013 | [5] 0.026 | [6] -0.064 | [7] -0.003 | [8] -0.039 | [9] 0.005 | [10] -0.023 | [11] 0.011 | [12] -0.034 | [13] 0.008 | [14] -0.025 | [15] -0.024 | [16] -0.013 | [17] -0.023 | [18] 0.006 | [19] 0.012 | [20] 0.008

NFS1 (UniProt Q9Y697)
inactive: [1] -0.004 | [2] 0 | [3] -0.059 | [4] -0.002 | [5] -0.008 | [6] -0.019 | [7] -0.032 | [8] 0.008 | [9] -0.008 | [10] -0.011 | [11] -0.012 | [12] -0.05 | [13] 0.019 | [14] -0.034 | [15] -0.009 | [16] 0.06 | [17] 0.028 | [18] 0.025 | [19] -0.031 | [20] -0.008

NPL (UniProt Q9BXD5)
inactive: [1] 0.031 | [2] 0.058 | [3] -0.055 | [4] 0.116 | [5] -0.061 | [6] 0.023 | [7] -0.051 | [8] -0.038 | [9] 0.063 | [10] 0.103 | [11] -0.075 | [12] -0.009 | [13] 0 | [14] -0.02 | [15] -0.06 | [16] 0.011 | [17] 0.066 | [18] 0.049 | [19] 0.149 | [20] 0.034

Random excerpt: 2 entries already listed
NIPA2 (UniProt Q8N8Q9)
inactive: [1] 0.123 | [2] 0.067 | [3] -0.052 | [4] 0.007 | [5] -0.046 | [6] -0.063 | [7] -0.065 | [8] 0.053 | [9] 0.074 | [10] 0.096 | [11] -0.033 | [12] -0.024 | [13] -0.109 | [14] 0.016 | [15] 0.002 | [16] 0.015 | [17] -0.044 | [18] 0.018 | [19] 0.031 | [20] 0.011

NELFE isoform 3 (UniProt P18615)
inactive: [1] 0.008 | [2] -0.045 | [3] 0.002 | [4] 0.092 | [5] -0.005 | [6] -0.047 | [7] -0.01 | [8] -0.007 | [9] 0.031 | [10] 0.007 | [11] -0.002 | [12] -0.006 | [13] -0.048 | [14] 0.064 | [15] -0.008 | [16] -0.014 | [17] -0.006 | [18] 0.012 | [19] -0.006 | [20] 0.193

Additional results follow.

NOC2L (UniProt Q9Y3T9)
inactive: [1] -0.089 | [2] -0.065 | [3] -0.122 | [4] 0.109 | [5] 0.055 | [6] -0.113 | [7] 0.002 | [8] -0.039 | [9] 0.086 | [10] 0.022 | [11] -0.053 | [12] 0.071 | [13] -0.009 | [14] 0.116 | [15] 0.022 | [16] 0.039 | [17] 0.031 | [18] -0.023 | [19] -0.185 | [20] 0.071

NIPSNAP1 (UniProt Q9BPW8)
inactive: [1] -0.055 | [2] 0 | [3] -0.076 | [4] -0.017 | [5] 0.063 | [6] -0.054 | [7] 0.008 | [8] -0.014 | [9] -0.084 | [10] -0.014 | [11] 0.17 | [12] -0.001 | [13] 0.054 | [14] -0.071 | [15] -0.125 | [16] 0.005 | [17] 0.071 | [18] 0.087 | [19] 0.073 | [20] 0.236

NFKBIE (UniProt O00221)
inactive: [1] 0 | [2] 0.161 | [3] -0.025 | [4] -0.025 | [5] -0.005 | [6] -0.224 | [7] 0.046 | [8] -0.072 | [9] 0.029 | [10] -0.023 | [11] 0.024 | [12] -0.093 | [13] -0.01 | [14] 0.044 | [15] 0.207 | [16] 0.026 | [17] -0.019 | [18] 0.02 | [19] 0.071 | [20] -0.018

NFKBIB (UniProt Q15653)
inactive: [1] 0.019 | [2] -0.075 | [3] -0.006 | [4] 0.002 | [5] 0.225 | [6] -0.044 | [7] -0.062 | [8] 0.014 | [9] 0.039 | [10] -0.048 | [11] 0.06 | [12] 0.007 | [13] 0.053 | [14] -0.064 | [15] -0.098 | [16] -0.005 | [17] -0.008 | [18] -0.037 | [19] 0.005 | [20] -0.006

NIFK (UniProt Q9BYG3)
inactive: [1] -0.089 | [2] 0.057 | [3] 0.276 | [4] 0.102 | [5] 0.134 | [6] 0.166 | [7] 0.245 | [8] 0.091 | [9] 0.114 | [10] -0.289 | [11] -0.089 | [12] 0.28 | [13] 0.055 | [14] 0.08 | [15] -0.054 | [16] 0.062 | [17] -0.001 | [18] 0.1 | [19] -0.037 | [20] 0.155

NLN (UniProt Q9BYT8)
inactive: [1] 0.006 | [2] 0.026 | [3] -0.028 | [4] 0.06 | [5] -0.059 | [6] -0.013 | [7] -0.023 | [8] -0.012 | [9] -0.026 | [10] 0.052 | [11] 0.063 | [12] -0.075 | [13] 0.015 | [14] -0.036 | [15] -0.061 | [16] -0.01 | [17] -0.002 | [18] 0.032 | [19] -0.032 | [20] 0.009

NLE1 (UniProt Q9NVX2)
inactive: [1] 0.051 | [2] -0.019 | [3] -0.03 | [4] -0.026 | [5] -0.032 | [6] -0.039 | [7] -0.04 | [8] -0.012 | [9] -0.002 | [10] -0.021 | [11] 0.004 | [12] -0.042 | [13] 0.022 | [14] -0.058 | [15] -0.052 | [16] -0.011 | [17] 0.021 | [18] 0.057 | [19] 0.035 | [20] 0.074

NIT2 (UniProt Q9NQR4)
inactive: [1] 0.003 | [2] 0.069 | [3] -0.026 | [4] 0.005 | [5] 0 | [6] -0.018 | [7] -0.032 | [8] -0.007 | [9] -0.039 | [10] -0.003 | [11] 0.014 | [12] -0.002 | [13] 0.035 | [14] -0.048 | [15] 0.007 | [16] 0.035 | [17] 0.027 | [18] 0.016 | [19] -0.041 | [20] 0.089
